Laboratory results taken from article PMC8880919.
Results are given in words; binding and its absence hold for the method and conditions named. Binding seen in cells or lysates may run through a third protein. Some entries that bind do so weakly or less than the wild type.

Columns and labels:
[1] = target: T1, Mst1 (S. pombe) (UniProt O94446); assay: co-IP; protein extracts of wild type S. pombe cells expressing chromosomally tagged proteins; 500 ug protein, IP with anti-MYC or anti-FLAG overnight at 4 C, protein A/G sepharose; lysis buffer PBS pH 7.0, 200 mM NaCl, 0.5 mM EGTA, 0.5 mM EDTA, 0.1% Triton X100; five washes at 220 mM NaCl; blots with anti-HA, anti-FLAG or anti-MYC
T1 sequence: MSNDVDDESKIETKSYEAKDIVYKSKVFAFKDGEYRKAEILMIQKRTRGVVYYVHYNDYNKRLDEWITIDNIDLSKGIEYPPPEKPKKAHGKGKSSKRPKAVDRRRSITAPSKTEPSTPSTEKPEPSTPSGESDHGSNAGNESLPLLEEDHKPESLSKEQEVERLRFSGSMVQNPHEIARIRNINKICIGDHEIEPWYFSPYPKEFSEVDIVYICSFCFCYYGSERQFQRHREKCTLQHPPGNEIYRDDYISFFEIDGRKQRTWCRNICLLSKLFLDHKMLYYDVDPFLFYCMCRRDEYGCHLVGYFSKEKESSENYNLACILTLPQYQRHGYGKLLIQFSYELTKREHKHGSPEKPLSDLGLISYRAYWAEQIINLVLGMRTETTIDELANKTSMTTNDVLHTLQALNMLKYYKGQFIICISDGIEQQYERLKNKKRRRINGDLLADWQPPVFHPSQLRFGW

[2] = target: T2, Taf5 (S. pombe) (UniProt O13282); assay: as above
T2 sequence: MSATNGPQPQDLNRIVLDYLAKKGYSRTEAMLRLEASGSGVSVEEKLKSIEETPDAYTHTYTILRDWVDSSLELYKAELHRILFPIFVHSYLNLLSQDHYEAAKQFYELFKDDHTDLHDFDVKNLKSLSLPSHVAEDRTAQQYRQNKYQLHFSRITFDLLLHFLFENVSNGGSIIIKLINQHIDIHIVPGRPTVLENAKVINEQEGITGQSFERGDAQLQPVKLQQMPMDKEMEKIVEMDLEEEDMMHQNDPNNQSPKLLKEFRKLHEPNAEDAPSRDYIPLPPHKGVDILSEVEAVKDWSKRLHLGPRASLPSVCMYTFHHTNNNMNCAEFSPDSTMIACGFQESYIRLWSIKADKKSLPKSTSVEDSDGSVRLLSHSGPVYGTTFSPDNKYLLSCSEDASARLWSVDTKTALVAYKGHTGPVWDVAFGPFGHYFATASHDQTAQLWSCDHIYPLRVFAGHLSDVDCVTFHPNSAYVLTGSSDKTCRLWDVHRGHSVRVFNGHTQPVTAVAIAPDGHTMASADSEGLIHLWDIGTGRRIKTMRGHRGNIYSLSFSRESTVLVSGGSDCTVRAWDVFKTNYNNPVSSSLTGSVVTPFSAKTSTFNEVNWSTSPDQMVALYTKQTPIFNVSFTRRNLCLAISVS

binding [1]: binds
binding [2]: binds
B1: Gad8 (protein, UniProt Q9P7J8 1-569)
chain: MSWKLTKKLKETHLASAIGLNSGGSSFTRGLKNSTLSSTSSRKSSDEKSRKSSEDKRSPQSTVVQPGLLQVTIIEARNLKLPSGHVPANYGVSIDNSLLAPPLSNGSGHARSRSHAWWLPYIVVEFDKNEILVDALNTASLENPCWDYQATFDVSRYSKLSLNIYLRSSSSRSRNGMGNDAFLGGIKLSPSFIVNKLTDEWVPLHGGSGELRVQMLYKPNQSTPLTIDAFELLKVVGKGSFGKVMQVRKRDTSRIYALKTMKKAHIVSRSEVDHTLAERTVLAQVNNPFIVPLKFSFQSPGKLYLVLAFVNGGELFHHLQREGCFDTYRAKFYIAELLVALECLHEFNVIYRDLKPENILLDYTGHIALCDFGLCKLNMAKTDRTNTFCGTPEYLAPELLLGHGYTKVVDWWTLGVLLYEMITGLPPFYDENINEMYRKILQDPLRFPDNIDEKAKDLLSGLLTRAPEKRLGSGGAQEIKNHPFFDDIDWKKLCAKKIQPPFKPSVESAIDTSNFDSEFTSEIPMDSVVADSHLSETVQQRFANWSYQRPTTIDTSDDINTIAPGSVIR
